Experimental data taken from patent US20120296403A1, “METHODS AND COMPOUNDS FOR MUSCLE GROWTH” (NOVARTIS AG, priority 2010, published 2012).
No constants are given. Whether binding was seen depends on the method and setting. In cells and extracts the contact can be indirect. Some results given as binding are weak or reduced against the parent protein; the word gives no strength.

Sequences of proteins named here, by UniProt entry; tags and fusion partners are left off.
UniProt P35569: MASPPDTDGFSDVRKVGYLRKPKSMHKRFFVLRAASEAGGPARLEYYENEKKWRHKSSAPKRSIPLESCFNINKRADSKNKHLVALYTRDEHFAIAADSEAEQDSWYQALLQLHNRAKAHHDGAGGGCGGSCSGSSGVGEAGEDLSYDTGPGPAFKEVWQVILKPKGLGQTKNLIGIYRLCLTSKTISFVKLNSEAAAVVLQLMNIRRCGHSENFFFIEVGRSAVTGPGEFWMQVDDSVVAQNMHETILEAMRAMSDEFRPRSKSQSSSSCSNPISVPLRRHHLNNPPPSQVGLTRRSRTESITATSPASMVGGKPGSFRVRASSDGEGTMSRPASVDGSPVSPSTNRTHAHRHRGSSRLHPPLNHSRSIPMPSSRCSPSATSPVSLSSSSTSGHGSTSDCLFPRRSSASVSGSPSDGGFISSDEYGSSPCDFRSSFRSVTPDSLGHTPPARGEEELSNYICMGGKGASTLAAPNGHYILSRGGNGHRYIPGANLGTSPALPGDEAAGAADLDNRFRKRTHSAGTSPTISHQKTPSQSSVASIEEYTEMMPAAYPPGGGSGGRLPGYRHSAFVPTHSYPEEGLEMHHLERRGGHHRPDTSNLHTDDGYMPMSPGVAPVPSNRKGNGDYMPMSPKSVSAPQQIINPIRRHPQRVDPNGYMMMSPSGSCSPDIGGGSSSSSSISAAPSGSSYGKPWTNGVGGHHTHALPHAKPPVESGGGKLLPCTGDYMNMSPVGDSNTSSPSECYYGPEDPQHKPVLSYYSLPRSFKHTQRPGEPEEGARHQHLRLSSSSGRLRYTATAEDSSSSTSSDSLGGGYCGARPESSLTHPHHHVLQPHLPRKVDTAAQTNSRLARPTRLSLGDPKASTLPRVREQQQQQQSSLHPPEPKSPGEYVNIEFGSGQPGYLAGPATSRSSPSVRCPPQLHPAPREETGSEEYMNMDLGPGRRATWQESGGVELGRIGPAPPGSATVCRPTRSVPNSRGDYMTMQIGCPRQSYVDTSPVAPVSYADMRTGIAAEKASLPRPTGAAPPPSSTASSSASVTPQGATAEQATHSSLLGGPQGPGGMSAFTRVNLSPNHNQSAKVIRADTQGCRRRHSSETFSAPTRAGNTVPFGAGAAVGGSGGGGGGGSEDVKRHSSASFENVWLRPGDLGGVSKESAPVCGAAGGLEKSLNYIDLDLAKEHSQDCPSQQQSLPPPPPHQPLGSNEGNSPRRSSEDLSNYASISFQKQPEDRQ

What was measured:
[1] = molecular target: IRS1 (insulin receptor substrate 1), endogenous in C2C12 myotubes (mouse) (UniProt P35569); test: co-immunoprecipitation with anti-Fbxo40 antibody from C2C12 myotube lysate, Western blot
[2] = molecular target: IRS1 (insulin receptor substrate 1), endogenous in C2C12 myotubes (mouse) (UniProt P35569); test: co-immunoprecipitation with the anti-Fbxo40 antibody from C2C12 myotube lysate, SDS eluate, immunoblot for IRS1

B1: Fbxo40, endogenous in C2C12 myotubes (enzyme, mouse, UniProt P62932 1-710, looked up)
chain: MGRARKPPPALHRHCEGCFNRHCHVPVEPSVSCLVISCHLLCGATFHMCKESEHTLLCPLEQVPCLNSEYGCPLSMARHKLAKHLQVCPASVVCCSMEWIRWPNVDSETFLHENIMKETPSEECLDTALALQDQKVLFRSLKMVELFPETRDATEEEPDMNGDTSWEETGGAVGGVDARLAPNSCLPATSRQMMELSQEERDALAKTKEGMDLDKFGKWESMFSKEHAASVLTGSLGKSEDKNGDVAGKEQCSSNVRIGDAEGSAERRGPQESQKSQELPATMEMTGLAPWQDGVLERLKTAVDAKDYNMYLVHNGRMLIHFGQMPACTPKERDFVYGNLEAQEVKTVYTFKIPVSYCGKRARLGDAMLKCRPSEHKAVDTSDLGISVEDLPKSDLIKTTLQCALERELKGHVISESRSIDGLFMDLATQTYNFEPEQFSSETVLADLLGTAQPGGLHVELHSECVTRRHNKSSSAFTFTCNKFFRRDEFPLHFKNVHTDIQSSLDGWFQHRCPLAYLGCTFVQNHFRPPGQKAKVIYSQELKTFAIKPEVAPELSEKWKSDHLSGRDGKSLNSLTSLPLEVLQYIAGFLDSISLSQLSQVSVLMRNICATLLQERGMVLSQWKKKRYSHGGTSWKVHNQIWQFSSLFSKINSWEFNDVTSMSEHLKTCPFNIVERKTDPIRLTSMCQPQEKARESLVSTFRARPRGRHF
Q: Which results are given for B1?
A: binding [1]: binds; binding [2]: binds
